{"source": "patent US20200000969A1", "about": "“HYALURONIC ACID COMPOSITIONS INCLUDING MEPIVACAINE” (LABORATOIRES VIVACY, priority 2013, published 2020)", "test": "Release kinetics of local anesthetic from hyaluronic acid gel by dialysis, UV-visible spectrophotometry", "format": "physicochemical", "settings": "HA 3×10^6 Da, X=0.12, 20 mg/g; for mass percentage of local anesthetic in the hyaluronic acid gel: initial 3 mg/g, 37° C., physiological saline", "method": "The initial concentrations of mepivacaine or lidocaine are 3 mg/g. The protocol for studying the release kinetics of the two local anesthetics is the same as that used in Example 5 of patent application WO 2010/015 901 in the name of Allergan. The release kinetics were, however, studied at 37° C. in physiological saline medium. Monitoring by UV-visible spectrophotometry is performed to assay the local anesthetic present in the gel. In Table 13 below, the mass percentages of lidocaine or mepivacaine in the hyaluronic acid gel measured after various dialysis times are specified."}
{"compound": "CCN(CC)CC(=O)Nc1c(C)cccc1C", "note": "[Lidocaine, lidocaine]", "values": [{"measurement": "release kinetics from the hyaluronic acid gel (FIG. 1), lidocaine versus mepivacaine", "setting": "3 mg/g, dialysis at 37° C. in physiological saline", "value": "comparable"}, {"measurement": "mass percentage of local anesthetic in the hyaluronic acid gel", "setting": "dialysis time 0 h", "value": 0.293, "unit": "mass %"}, {"measurement": "mass percentage of local anesthetic in the hyaluronic acid gel", "setting": "dialysis time 1.5 h", "value": 0.160, "unit": "mass %"}, {"measurement": "mass percentage of local anesthetic in the hyaluronic acid gel", "setting": "dialysis time 5 h", "value": 0.109, "unit": "mass %"}, {"measurement": "mass percentage of local anesthetic in the hyaluronic acid gel", "setting": "dialysis time 7 h", "value": 0.103, "unit": "mass %"}, {"measurement": "mass percentage of local anesthetic in the hyaluronic acid gel", "setting": "dialysis time 23 h", "value": 0.091, "unit": "mass %"}, {"measurement": "mass percentage of local anesthetic in the hyaluronic acid gel", "setting": "dialysis time 48 h", "value": 0.084, "unit": "mass %"}, {"measurement": "mass percentage of local anesthetic in the hyaluronic acid gel", "setting": "dialysis time 72 h", "value": 0.082, "unit": "mass %"}]}
